Assay results as given in patent US20220015402A1, “Mint Flavor Compositions” (The Procter & Gamble Company, priority 2020, published 2022).

How the values were obtained:
[1] = Odor/taste character description by expert flavorists (internal unpublished research); conditions: expert flavorist's description
From the text: An aspect of the invention provides for a mint flavor composition comprising: a mint flavor component that is racemic menthol and an additional mint flavor component, preferably a combination of racemic menthol and (−)-menthol, more preferably a combination of racemic menthol and (−)-menthol while minimizing the amount of neomenthol, isomenthol, and neoisomenthol. The combination provides the benefits of a cooling sensation, minimizing negatives from less desirable stereoisomers, while being cost effective. Menthol has three chiral centers, and thus has eight stereoisomers, specifically (+)-menthol, (+)-isomenthol, (+)-neomenthol, (+)-neosiomenthol, (−)-menthol, (−)-isomenthol, (−)-neomenthol, and (−)-neoisomenthol. Natural menthol primarily exists as the (1R,2S,5R)-stereoisomer form, also known as (−)-menthol, accounting for perhaps 35-50% of the aroma chemicals present in natural peppermint oil. […]
An aspect of the invention provides for a mint flavor composition comprising: a mint flavor component that is alpha-pinene and an additional mint flavor component. […] Preferably the alpha-pinene has a peak area percent from 1.90-5, preferably 2.00-4, more preferably 2.20-3.5, as determined by Lei-Hoke Method I. Preferably a peak area ratio of (−)-alpha-pinene:(+)-alpha-pinene is from 3.0-6, preferably 3.1-5, more preferably 3.2-4.7, alternatively 3.5-4.5, as determined by Lei-Hoke Method IV. […]

[2] = Expert sensory testing of racemic menthol vs (−)-menthol in toothpaste (CREST Cavity) with standard spearmint flavor; type: in vivo
Protocol: In separate, unpublished internal experiments, perceptual experiences of racemic menthol are quantified via expert sensory testing. The use of a standard spearmint flavor (minimizing extra menthol contribution) compared racemic menthol to (−)-menthol in a toothpaste formulation (CREST Cavity). There are several sensory observations taken from these experiments. […] These aromatic notes appear during brushing and disappear after 5-10 minutes post expectoration and are more pronounced as concentrations increase.

## CC1=CC[C@@H]2C[C@H]1C2(C)C [(+)-alpha-pinene]
[1]
  odor/aroma character: reminiscent of a green apple

## CC1=CC[C@H]2C[C@@H]1C2(C)C [(−)-alpha-pinene]
[1]
  odor/aroma character: animalic and sweaty

## CC1CCC(C(C)C)C(O)C1 (racemic) [Racemic Menthol, racemic menthol]
[2]; at higher concentration (greater than 5,000 part per million), during brushing
  aromatic character: pencil lead, burnt rubber, shoe rubber/leather and motor oil
[2]; higher concentration (greater than 5,000 part per million)
  time after which the aromatic notes disappear post expectoration: 5 to 10 min
[2]; toothpaste
  differences vs (−)-menthol detected in the oral cavity for all sensory attributes measured: no meaningful differences
  differences vs (−)-menthol in peppery burn, cooling vapors, thermal diffusion and cold: no meaningful differences

## CC1CCC(C(C)C)C(O)C1 (single isomer, unassigned; (-)) [(−)-Menthol, (−)-menthol]
[2]; at equivalent concentration, toothpaste
  perception compared with racemic menthol: colder, more minty, less bitter, less drying and delivers a high overall clean mouth sensation
